# From publication PMC3541164, “Cytotoxic and potent CYP1 inhibitors from the marine algae Cymopolia barbata” (Organic and Medicinal Chemistry Letters, 2012)
# Test system: HepG2 cells
# Assay: MTS cell viability assay, liver cancer cells
# Assay type: cell-based
# Conditions: Homo sapiens, 24 h exposure, read-out: IC50 cell viability HepG
# Experimental: Cell lines (CCD18 Co, HepG2 and MCF-7) were maintained in ATCC-formulated Eagle’s Minimum Essential Medium and HT29 was maintained in McCoy’s 5a Modified Medium supplemented with 10% fotal bovine serum (Atlas; Fort Collins, CO, USA), 10 mM HEPES solution, 100 mM L-glutamine penicillin streptomycin solution, 3 g/L glucose, and 1.5 g/L of sodium bicarbonate. Cells were maintained at 37°C with 5% CO2 in Corning 75 cm^2 culture flasks. Cells were exposed to a given isolate or known anticancer agent for 24 h. Following the appropriate treatments, cell viability was evaluated using an MTS assay according to the manufacturer’s instructions. All assays were performed at least three times and were monitored spectrophotometrically at 590 nm. Cell viability was recorded as percentage relative to vehicle solvent-treated control.
smiles,measurement,value
"COc1cccc2c1C(=O)c1c(O)c3c(c(O)c1C2=O)C[C@@](O)(C(=O)CO)C[C@@H]3O[C@H]1C[C@H](N)[C@H](O)[C@H](C)O1 [Doxorubicin, doxorubicin, reference compound]",IC50,18.6 ± 0.58 µM
